The record followed here is PubChem BioAssay AID493014 (National Center for Advancing Translational Sciences (NCATS), 2011).

A short description of this test: qHTS Assay to Find Inhibitors of Chronic Active B-Cell Receptor Signaling. Particulars: ABC-DLBCL IkBa-CBG/CBR reporter, luminescence ratio (green luciferase fused to IkBa over red control in TMD8 lymphoma cells), 4 h. Summed up: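 TMD8 human ABC-DLBCL cells with doxycycline-inducible IκBα–green luciferase fusion and unfused red luciferase, in 0.5% FBS medium; compounds up to 46 uM, 4 h at 37C. Green/red luminescence ratio, filter-overlap corrected, fitted to concentration-response curves.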
Background: qHTS replaces the single test concentration by a dilution series.

Where [1] appears, read: measured here: CBR red luminescence, cell number.

By AC50 is commonly meant the concentration giving half of the maximal activity seen.

The other results are listed elsewhere or left out. Further columns of the screen follow, without active or inactive calls. The list favours compounds with an active or inconclusive main result. Words in brackets tell the shape of the fitted curve; partial curves, single points and poor fits give uncertain potencies.

On to `O=C(c1cccnc1NCc1ccc(F)cc1)N1CCOCC1`, for which, under setting [1], the AC50 was 1.41 µM [rising, partial curve, poor fit].

Consider `N#CCCn1nnc(-c2ccccc2F)n1`, for which, under setting [1], the AC50 was 18.4 µM [rising, partial curve, poor fit].

Turning to `OCCNCC(O)CN1c2ccccc2Sc2ccccc21` (configuration not stated), the AC50 under setting [1] is 25.1 µM [falling, single point].

Regarding `COc1ccc(C(=O)NCCOc2ccccc2Cl)c(OC)c1OC`, under setting [1], the concentration at half-maximal activity (AC50) is 0.112 µM [rising, full curve, poor fit].

For `Cc1nn(-c2ccccc2)c(Cl)c1C(=O)Nc1c(C)n(C)n(-c2ccccc2)c1=O`, the AC50 under setting [1] was 0.1 µM [falling, full curve, poor fit].

Turning to `CCN(CC)S(=O)(=O)c1ccc(N2CCOCC2)c(NC(=O)Cc2cccc3ccccc23)c1`, under setting [1], the half-maximal activity concentration (AC50) is 18.4 µM [rising, partial curve, poor fit].

Regarding `O=C(CSc1nc(-c2ccccc2)cs1)NCCN1C(=O)CSC1=O`, the AC50 under setting [1] is 20 µM [rising, partial curve, poor fit].

As for `Cc1cc(Cl)ccc1OCc1cn2cccnc2n1`, the AC50 under setting [1] was 0.708 µM [rising, full curve].

As for `COc1cc(/C=C(\C#N)C(=O)Nc2ccccn2)ccc1O`, the AC50 under setting [1] is 10 µM [falling, partial curve].

`C=CCn1nc2n(c1=O)-c1ccccc1SC2`: the AC50 under setting [1] is 11.2 µM [rising, single point].

Regarding `Cc1noc(C)c1C(=O)N(C)CC(=O)Nc1ccc(F)c(F)c1F`, the AC50 under setting [1] was 18.4 µM [rising, single point].

Consider `COc1ccc(NC(=O)c2oc3ccccc3c2NC(=O)C2CC2)cc1OC`, for which the AC50 under setting [1] was 0.501 µM [falling, full curve].

As for `O=C(Nc1cc(Cl)ccc1N1CCOCC1)c1cc2ccccc2o1`, under setting [1], the AC50 is 0.501 µM [falling, full curve].

Turning to `Cc1ccc(-c2nn(-c3ccccc3)cc2CNCc2ccccc2)cc1`, under setting [1], the AC50 was 15.8 µM [falling, single point].

For `O=C(C[n+]1ccc(Cc2ccccc2)cc1)Nc1ccccc1`, the AC50 under setting [1] is 11.2 µM [falling, partial curve, poor fit].

Consider `Cn1c(SCC(=O)NCC2CCCO2)nc2c([nH]c3ccccc32)c1=O` (configuration not stated), for which the AC50 under setting [1] was 1.3 µM [falling, full curve, poor fit].

For `CCOC(=O)c1c(C)[nH]c(C(=O)COC(=O)CCC2CCCC2)c1C`, the concentration at half-maximal activity (AC50) under setting [1] is 29.1 µM [rising, single point].

Regarding `O=c1cc(-c2ccccc2)nc2cc(-c3ccc(Br)cc3)[nH]n12`, the concentration at half-maximal activity (AC50) under setting [1] is 0.398 µM [falling, full curve, poor fit].

Take `CCOc1ccc2nc(N3CCCC(C(=O)NCCCN4CCCCC4)C3)sc2c1` (configuration not stated): the AC50 under setting [1] is 12.6 µM [falling, partial curve, poor fit].

Consider `CCNC(=O)c1cc(S(=O)(=O)N(C)C)c(Cl)cc1Cl`, for which the AC50 under setting [1] was 35.5 µM [rising, single point].

As to `CC(=O)c1ccc(N=c2scc(C)n2C(C)C)cc1`, under setting [1], the AC50 is 35.5 µM [rising, single point].

For the compound `CCCN(CC(=O)Nc1ccccc1C)C(=O)c1ccc(-c2ccc(C(C)=O)cc2)o1`, the half-maximal activity concentration (AC50) under setting [1] was 29.1 µM [falling, single point].

Consider `CCOC(=O)c1c(-c2ccccc2)oc2ccc(OC(C)C(=O)O)cc12` (configuration not stated), for which the AC50 under setting [1] was 2.51 µM [falling, full curve, poor fit].

For `COC(=O)c1ccc2c(c1)C(C)(C)C(/C=C/c1ccc(O)cc1)=[N+]2C`, the half-maximal activity concentration (AC50) under setting [1] was 16.4 µM [falling, single point].

With `COc1ccc(NC(=O)/C(C#N)=C\c2cc(C)n(-c3ccc4c(c3)OCO4)c2C)cc1`, the half-maximal activity concentration (AC50) reads like this: under setting [1], 5.8 µM [rising, full curve]; (measured here: IkBa-CBG green luminescence) 5.8 µM [falling, full curve].

`CCOC(=O)C1=C(C)C(c2ccccc2O)NC(=O)N1` (configuration not stated): under setting [1], the AC50 was 0.366 µM [falling, partial curve, poor fit].

As to `CC(=O)Nc1ccc(/C=N/N2C(=O)NC(C)(c3ccc(OC(F)F)cc3)C2=O)cc1` (configuration not stated), the concentration at half-maximal activity (AC50) under setting [1] was 14.1 µM [falling, single point].

Regarding `CCCN(CC(=O)Nc1cc(Cl)ccc1Cl)C(=O)CN1C(=O)C2CCCCC2C1=O` (configuration not stated), the AC50 under setting [1] is 5.62 µM [falling, single point].

Regarding `CC(C)c1cc(C(=O)N/N=C/c2c[nH]c3ccccc23)n[nH]1`, under setting [1], the AC50 was 15.8 µM [falling, single point].

On to `COC(=O)C1CCN(C(=O)Cc2ccc(Br)cc2)CC1`, for which the AC50 under setting [1] is 0.146 µM [rising, full curve, poor fit].

As for `COc1ccc(-c2oc(=O)c3cc(OC)c(OC)cc3c2-c2cc(F)cc(OC)c2)cc1`, the AC50 under setting [1] is 9.2 µM [falling, partial curve].

As for `Cc1cccc(C(=O)NC(=S)N(C)C2CCCCC2)c1`, the AC50 under setting [1] was 0.631 µM [rising, partial curve, poor fit].

Turning to `CCOc1ccccc1NC(=O)CCNC(=O)c1ccc(Cl)cc1`, the AC50 under setting [1] is 35.5 µM [rising, single point].

Consider `CCc1cc(C(=O)Cc2nc3ccccc3s2)c(O)cc1OCC(=O)O`, for which the AC50 under setting [1] was 2.24 µM [falling, full curve, poor fit].

For the compound `N#C/C(=C(\O)CCl)c1nnc2n1CCCCC2`, the AC50 under setting [1] was 3.26 µM [rising, single point].

On to `Cc1c(/C(O)=C2\C(=O)C(=O)N(CCN(C)C)C2c2cccs2)cnn1-c1ccccc1` (configuration not stated), for which, under setting [1], the AC50 is 3.98 µM [falling, partial curve].

Regarding `O=C(NCCOCCNC(=O)OCc1ccccc1)OCc1ccccc1`, the AC50 under setting [1] is 6.31 µM [falling, single point].

For `CCOC(=O)N1CCN(C(=O)C(C)n2nc(C)n3c(cc4sccc43)c2=O)CC1` (configuration not stated), the AC50 under setting [1] is 2.59 µM [rising, partial curve].

In the case of `CC(C)NC(=O)c1cc2c(=O)n3ccccc3nc2s1`, under setting [1], the concentration at half-maximal activity (AC50) was 3.16 µM [rising, partial curve, poor fit].

For `CCc1ccc(OCC(=O)NCCc2ccc3c(c2)OCCO3)cc1`, the AC50 under setting [1] is 18.4 µM [rising, partial curve, poor fit].

As for `COc1ccc(CCNC(=O)c2cc(-c3ccccc3OC)on2)cc1OC`, under setting [1], the AC50 is 2.51 µM [falling, partial curve].

For `COc1ccc(-c2csc(-c3ccc(C(=O)O)cc3)n2)cc1`, under setting [1], the AC50 was 12.6 µM [falling, partial curve].

Turning to `Fc1ccccc1COc1ccc2ccccc2c1CNc1nn[nH]n1`, under setting [1], the AC50 is 10 µM [rising, partial curve].

`Cc1cc(Cn2nc(-c3ccccc3)cc2C(=O)NCc2cccc(C(F)(F)F)c2)on1`: under setting [1], the AC50 was 29.1 µM [falling, single point].

Take `Cc1ccsc1C1C=C(c2cccc(Br)c2)Nc2ncnn21` (configuration not stated): the AC50 under setting [1] is 35.5 µM [falling, single point].

`COC(=O)c1c(N)sc(Cc2ccccc2)c1C`: the AC50 under setting [1] was 11.2 µM [rising, partial curve, poor fit].

Turning to `COc1cccc(-c2csc(N3CCN(C(=O)Nc4ccc(Cl)cc4)CC3)n2)c1`, the AC50 under setting [1] was 0.112 µM [rising, full curve, poor fit].

Take `O=C(OCC(=O)c1cccs1)c1ccccc1`: the AC50 under setting [1] is 35.5 µM [falling, single point].

For `C=CCNC(=O)c1ccc2c3n(nc2c1)-c1ccccc1CO3`, under setting [1], the AC50 is 11.2 µM [falling, partial curve, poor fit].

In the case of `Cc1ccc(-c2nc3n(n2)Cc2ccccc2-3)cc1`, under setting [1], the AC50 was 18.4 µM [falling, partial curve].

Turning to `Nc1nc(N)c(N=Nc2ccc(Cl)cc2)c(=O)[nH]1`, under setting [1], the AC50 was 35.5 µM [falling, single point].

As to `O=C(Cc1c[nH]c2ccccc12)OCC(=O)c1ccccc1`, the AC50 under setting [1] is 15.8 µM [falling, partial curve].

For `CC(C)C(OC(=O)Cn1nnc2ccccc21)C(=O)NC1CCCC1` (configuration not stated), the AC50 under setting [1] is 35.5 µM [falling, single point].

As for `CC1=C(C(=O)N(C)C)C(c2ccc(N3CCOCC3)cc2)NC(=O)N1` (configuration not stated), under setting [1], the AC50 was 11.2 µM [falling, partial curve, poor fit].

Take `O=C(Nc1c(-c2ccccc2)nc2ccccn12)c1ccccc1F`: the AC50 under setting [1] is 6.31 µM [rising, single point].

For the compound `COc1cc2c(cc1OC)C(c1cccc(F)c1)CC(=O)N2` (configuration not stated), under setting [1], the AC50 was 0.562 µM [rising, full curve, poor fit].

In the case of `C=CCn1c(SCC(=O)Nc2cc(C)on2)nnc1C1COc2ccccc2O1` (configuration not stated), the concentration at half-maximal activity (AC50) under setting [1] was 35.5 µM [falling, single point].

For `COc1ccc(C2C=C(c3ccccc3)Nc3ncnn32)cc1` (configuration not stated), the AC50 under setting [1] is 29.1 µM [falling, single point].

`Cc1ccccc1C(=O)NNc1ccc(-c2csnn2)cc1`: the AC50 under setting [1] is 22.4 µM [falling, partial curve, poor fit].

Regarding `O=C(Cn1c(=O)oc2ccccc21)N1CCN(c2ccccc2)CC1`, under setting [1], the AC50 was 25.9 µM [falling, single point].

On to `COc1cc(OC)cc(-c2nc3ccccc3c(=O)n2OC(=O)c2ccc(C)c(C)c2)c1`, for which, under setting [1], the AC50 was 8.2 µM [falling, partial curve].

In the case of `CC(=O)Oc1ccc2ccccc2c1C(NC(=O)Cc1ccccc1)c1ccc(Cl)cc1` (configuration not stated), the half-maximal activity concentration (AC50) under setting [1] is 35.5 µM [falling, single point].

For `CCCCCOc1ccc(C(=O)Nc2ccc(S(=O)(=O)Nc3cc(C)on3)cc2)cc1`, the AC50 under setting [1] is 3.55 µM [falling, partial curve, poor fit].

Regarding `C=C1CCC[C@]2(C)C[C@H]3OC(=O)C(CNC(C)(CO)CO)[C@H]3CC12` (some centres not stated), under setting [1], the concentration at half-maximal activity (AC50) was 10 µM [falling, partial curve, poor fit].

Consider `CN(Cc1c(C(=O)N/N=C/c2ccc(O)cc2)nnn1-c1nonc1N)c1ccccc1`, for which the AC50 under setting [1] was 25.1 µM [falling, single point].

On to `CC(Nc1nc(-c2ccccc2F)nc2ccccc12)c1ccccc1` (configuration not stated), for which, under setting [1], the AC50 was 5.62 µM [rising, single point].
